# PubChem BioAssay AID540256 (National Center for Advancing Translational Sciences (NCATS), 2011)
# In all, about 300,000 compounds went through this assay and about 3,700 (1.2%) were called active. This list was built around the results that the source calls inconclusive (neither active nor inactive); the mix of calls is not that of the screen. Calls come from the whole dose curve; tested in HEK293 cells. Where the call is inconclusive, the potency comes from a doubtful curve fit.
# Assay: qHTS for Inhibitors of binding or entry into cells for Lassa Virus; note: nearly all actives have a fitted effect of over 50% in size
# Conditions: Lassa virus pseudotype entry inhibition, cell reporter; series mostly up to 37.9 µM
# Potency is the fitted concentration of half-maximal effect.
row,SMILES,Potency
1,O=[N+]([O-])c1ccc(NC(=S)NCc2ccncc2)cc1,inactive
2,Oc1ccc(/C=C/c2nc(-c3ccccc3O)n(-c3ccccc3)n2)cc1,active: 11.6 µM
3,O=C(Cc1ccc(Cl)cc1)Nc1cccc(S(=O)(=O)Nc2ccccc2F)c1,"inconclusive: 4.11 µM [inhibitor, full curve]"
4,CN(CC(=O)Nc1ccccc1Sc1ccccc1)Cc1nc2ccccc2c(=O)[nH]1,"inconclusive: 22.4 µM [inhibitor, single point]"
5,COC(=O)c1cccc(Nc2ncnc3ccc(C)cc23)c1,inactive
6,c1ccc(CCCN2CCN(CCOC(c3ccccc3)c3ccccc3)CC2)cc1,active: 16.4 µM
7,CN(C(=O)CSc1nc2ccc(NC(=O)c3ccccc3)cc2s1)c1ccccc1,"inconclusive: 22.4 µM [inhibitor, single point]"
8,CCOC(=O)c1[nH]c2ccc(F)cc2c1NC(=O)C(C)N1CCc2cc(OC)c(OC)cc2C1 (stereo not drawn),"inconclusive: 8.2 µM [inhibitor, partial curve]"
9,O=S(=O)(Nc1nc2ccccc2nc1N1CCc2ccccc2C1)c1ccc(Br)cc1,"inconclusive: 4.61 µM [inhibitor, full curve, poor fit]"
10,c1c2c(cc3sc(N4CCOCC4)nc13)OCCO2,active: 5.17 µM
11,CC(C)c1ccc(NC(=S)Nc2cccc3ccccc23)cc1,inactive
12,COc1ccccc1N1CCN(C(=O)c2cc3sccc3n2C)CC1,"inconclusive: 1.03 µM [activator, single point]"
13,Cn1c(SCc2ccccc2[N+](=O)[O-])nnc1-c1cccnc1,"inconclusive: 7.08 µM [activator, partial curve]"
14,O=C(CSc1nnc(-c2c[nH]c3ccccc23)o1)c1ccc(-c2ccccc2)cc1,"inconclusive: 3.55 µM [inhibitor, full curve]"
15,Cc1nnc(SCC(=O)NCc2cccs2)n1-c1ccccc1,inactive
16,O=C(NCCC1=CCCCC1)c1cc(S(=O)(=O)N2CCOCC2)ccc1F,inactive
17,NC(=O)C1CCN(C2=C(NS(=O)(=O)c3ccccc3)C(=O)c3ccccc3C2=O)CC1,"inconclusive: 35.5 µM [inhibitor, single point]"
18,Cc1ccc(C)n1NC(=O)c1ccco1,"inconclusive: 1.41 µM [activator, single point]"
19,O=C(Nc1cc(C(F)(F)F)ccc1Cl)C(=O)N1CCCCC1,"inconclusive: 1.26 µM [inhibitor, single point]"
20,CCN1CCN(c2ccc(NC(=O)c3cccc(S(=O)(=O)N4CCCC4)c3)cc2)CC1,inactive
21,O=C(Cn1ncc(Cl)c(Cl)c1=O)c1ccc(Cl)cc1,"inconclusive: 29.1 µM [inhibitor, single point]"
22,COc1ccc(-n2nc(C(=O)N3CCN(c4cccc(C)c4)C(C)C3)c3c4ccccc4n(C)c3c2=O)cc1Cl (stereo not drawn),inactive
23,Cc1ccc(S(=O)(=O)N(C)c2ccc(OCC(=O)Nc3nc4ccccc4s3)cc2)cc1,"inconclusive: 29.1 µM [inhibitor, single point]"

row,SMILES,Potency
1,O=C(COC(=O)C1CC2CCCC(C1)C2=O)Nc1ccccc1 (stereo not drawn),inactive
2,CC1CN(C(=O)Cn2cnc3c2c(=O)n(C)c(=O)n3C)CC(C)O1 (stereo not drawn),"inconclusive: 12.6 µM [activator, partial curve, poor fit]"
3,COC(=O)N1CCc2c(sc(NC(=O)C3=COCCO3)c2C#N)C1,"inconclusive: 22.4 µM [inhibitor, partial curve, poor fit]"
4,COc1ccc(/C=N/NC(=O)c2cccc(OC(F)(F)C(F)F)c2)c(OC)c1OC,active: 10 µM
5,O=C(O)CCCC(=O)Nc1ccccc1SCCS(=O)(=O)c1ccc(Cl)cc1,"inconclusive: 5.62 µM [inhibitor, single point]"
6,COc1ccc(C(=O)CC2(O)C(=O)N(CCc3ccccc3)c3ccc(Br)cc32)cc1OC (stereo not drawn),"inconclusive: 10 µM [inhibitor, partial curve, poor fit]"
7,O=C(Nc1ccc(F)cc1)Nc1ccc2c(c1)CCC2,inactive
8,Cc1ccccc1-c1nc(CN2CCC(C(=O)NCCCN3CCCC(C)C3)CC2)c(C)o1 (stereo not drawn),"inconclusive: 6.31 µM [inhibitor, full curve, poor fit]"
9,Nc1ccc2oc(-c3ccccc3Cl)nc2c1,"inconclusive: 7.08 µM [inhibitor, partial curve, poor fit]"
10,CC(=O)Nc1ccc(S(=O)(=O)NC2=C(N3CCN(c4ccc(F)cc4)CC3)C(=O)c3ccccc3C2=O)cc1,"inconclusive: 22.4 µM [inhibitor, single point]"
11,COc1ccccc1N1CCN(c2ccc(=O)n(CC(=O)NCc3ccc(OC(C)C)cc3)n2)CC1,"inconclusive: 0.562 µM [inhibitor, full curve, poor fit]"
12,CC(C)(CNc1ccc([N+](=O)[O-])cc1Cl)N1CCOCC1,inactive
13,O=C(Nc1ccc(N2CCOCC2)cc1)Nc1ccc2nc(-c3ccco3)c(-c3ccco3)nc2c1,inactive
14,CCNC(=O)c1ccccc1CCc1ccccc1,inactive
15,CCC(C)NS(=O)(=O)c1ccc(S(=O)(=O)N2CC=C(c3ccc(F)cc3)CC2)cc1 (stereo not drawn),inactive
16,CCn1cnc2cc(NC(=O)c3cccs3)ccc21,"inconclusive: 25.1 µM [inhibitor, single point]"
17,COCCNc1oc(-c2ccc(F)cc2)nc1C#N,"inconclusive: 31.6 µM [activator, partial curve, poor fit]"
18,CC1CCN(c2ccc(-c3cccc(NC(=O)C(F)(F)F)c3)nn2)CC1,active: 2.24 µM
19,COc1cc(/C=N/Nc2nc3ccccc3s2)ccc1OC(=O)c1ccccc1F,"inconclusive: 35.5 µM [inhibitor, single point]"
20,CSc1nc2[nH]c(=O)n(O)c(=O)c2n1Cc1ccccc1,inactive
21,CCCCCN(C(=O)CCC(=O)OCC(=O)N1C(C)CCCC1C)c1c(N)n(CCCC)c(=O)[nH]c1=O (stereo not drawn),inactive
22,Cc1ccc(CN2CCCn3nc(C(=O)NC(C)C)cc3C2=O)cc1,"inconclusive: 0.562 µM [inhibitor, partial curve, poor fit]"
23,Cc1ccc(N2CCN(S(=O)(=O)c3cc(C(=O)Nc4cc(Cl)cc(Cl)c4)ccc3F)CC2C)cc1 (stereo not drawn),"inconclusive: 0.562 µM [inhibitor, full curve, poor fit]"

# Compounds shown so far containing a CF3 group:
row,SMILES,Potency
19,O=C(Nc1cc(C(F)(F)F)ccc1Cl)C(=O)N1CCCCC1,"inconclusive: 1.26 µM [inhibitor, single point]"
18,CC1CCN(c2ccc(-c3cccc(NC(=O)C(F)(F)F)c3)nn2)CC1,active: 2.24 µM

# Look-ups from the entries so far:
# CC1CCN(c2ccc(-c3cccc(NC(=O)C(F)(F)F)c3)nn2)CC1 – Potency: active: 2.24 µM
# CSc1nc2[nH]c(=O)n(O)c(=O)c2n1Cc1ccccc1 – Potency: inactive

# (next part)

row,SMILES,Potency
1,C/C(Cl)=C\Cn1c(N2CCCCCC2)nc2c1c(=O)n(C)c(=O)n2C,"inconclusive: 35.5 µM [inhibitor, single point]"
2,COc1ccc(NC(=O)Cn2c(=O)n(Cc3nc(-c4ccccc4)no3)c(=O)c3cc4c(cc32)OCO4)c(OC)c1,"inconclusive: 7.08 µM [activator, partial curve, poor fit]"
3,COc1ccc2oc(C(=O)OCC(=O)N(C)C3CCS(=O)(=O)C3)c(C)c2c1 (stereo not drawn),inactive
4,CN1CCN(c2c(F)cc3c(=O)c(C(=O)O)cn4c3c2SCC4)CC1,"inconclusive: 1.12 µM [activator, single point]"
5,S=C(Nc1ccccc1)Nc1ccc(OCc2ccc(Cl)cc2Cl)cc1,"inconclusive: 9.2 µM [inhibitor, partial curve, poor fit]"
6,Cc1cc(C(=O)Cn2nc(C(=O)O)c3ccccc3c2=O)c(C)n1CCc1ccc(F)cc1,"inconclusive: 11.2 µM [inhibitor, partial curve, poor fit]"
7,COc1cccc(NC(=O)CSc2nc3c([nH]c4ccccc43)c(=O)n2C)c1,"inconclusive: 35.5 µM [inhibitor, single point]"
8,O=C(CF)NC(NC(=S)Nc1cccc([N+](=O)[O-])c1)C(Cl)(Cl)Cl (stereo not drawn),inactive
9,O=C(CC(=O)c1ccccc1)Nc1ccccc1,"inconclusive: 5.01 µM [activator, full curve, poor fit]"
10,NC(=O)C1CCN(CC(=O)Nc2ccccc2Sc2ccccc2)CC1,"inconclusive: 2.51 µM [inhibitor, partial curve, poor fit]"
11,C=CCN(c1ccccc1)S(=O)(=O)c1cccc(C(=O)NCc2ccco2)c1,"inconclusive: 31.6 µM [inhibitor, single point]"
12,COc1ccc(N2CCN(C(=O)CC34CC5CC(CC(C5)C3)C4)CC2)c([N+](=O)[O-])c1,"inconclusive: 31.6 µM [inhibitor, single point]"
13,O=C(CSCc1c(F)cccc1Cl)Nc1cccnc1,inactive
14,Cc1ccsc1/C=N/NC(=O)c1ccc2c(c1)OCCO2,"inconclusive: 5.62 µM [inhibitor, full curve, poor fit]"
15,COc1ccc(C2CC(c3ccccc3)=NN2c2ccc(S(N)(=O)=O)cc2)cc1 (stereo not drawn),"inconclusive: 11.2 µM [inhibitor, partial curve, poor fit]"
16,CCOC(=O)c1c(NC(=O)CSc2ncnc3ccccc23)sc(C(C)=O)c1C,inactive
17,CCOc1cc(CNc2cccc3ccccc23)cc(Br)c1OCC(=O)NC(C)(C)C,"inconclusive: 9.2 µM [inhibitor, partial curve]"
18,CN(C(=O)COc1ccc(Br)cc1Cl)C1CCCCC1,inactive
19,CCOc1ccc(CCNC(=O)COC(=O)c2nccnc2N)cc1OCC,"inconclusive: 35.5 µM [activator, single point]"
20,O=C(OCc1ccc(Cl)c(Cl)c1)c1ccccn1,"inconclusive: 16.4 µM [activator, partial curve, poor fit]"
21,COc1ccc(-c2cc3ccc(O)c(CN4CCC(C)CC4)c3oc2=O)cc1,"inconclusive: 7.08 µM [activator, partial curve, poor fit]"
22,CCN(Cc1cc(OC)c(OC)c(OC)c1)S(=O)(=O)c1ccccc1Br,"inconclusive: 3.15 µM [inhibitor, full curve, poor fit]"
